This data set is described as follows: peptide synthesis. The note with it: whole synthesis.

These results are taken from paper PMC8917853 (Iranian Journal of Basic Medical Sciences, 2021).

Where only a bound is given, the exact number is not on record here.

Consider DOTA-(Lys-Dabcyl^6,Phe^7)-ARA-290, for which the “final HPLC purity” value is reported as greater than 97%.
